The values below come from patent US20210171576A1, “METHODS FOR TREATING CANCER WITH ACYLDEPSIPEPTIDE ANALOGS” (priority 2018, published 2021).

The data set deals with mitochondrial proteins of HEK293 T-REx cells. Put plainly: Mitochondrial proteome profiling for WT and CLPP^−/− (fold change CLPP^−/−/WT). Also on record: species or system human. As to conditions: MaxQuant total peptide ion intensity.
Setting [1] is: fold change of mitochondrial protein detected in CLPP knockout compared to WT HEK293 T-REx cells.

B1: MTX1 (protein, UniProt Q13505 1-466, looked up)
Metaxin-1: MLLGGPPRSPRSGTSPKGPWSSTGHVQFGKSPQTWPRRTRPRSPEPAAPSGVRGSTWTRRRDSPRRAGPTALSRYVGHLWMGRRPPSPEARGPVPRSSAASRARRSLASPGISPGPLTATIGGAVAGGGPRQGRAEAHKEVFPGQRVGKMAAPMELFCWSGGWGLPSVDLDSLAVLTYARFTGAPLKVHKISNPWQSPSGTLPALRTSHGEVISVPHKIITHLRKEKYNADYDLSARQGADTLAFMSLLEEKLLPVLVHTFWIDTKNYVEVTRKWYAEAMPFPLNFFLPGRMQRQYMERLQLLTGEHRPEDEEELEKELYREARECLTLLSQRLGSQKFFFGDAPASLDAFVFSYLALLLQAKLPSGKLQVHLRGLHNLCAYCTHILSLYFPWDGAEVPPQRQTPAGPETEEEPYRRRNQILSVLAGLAAMVGYALLSGIVSIQRATPARAPGTRTLGMAEEDEEE
For B1, the “Avg. fold change (CLPP KO/WT)” value ([…]) was −3.88.

B2: PHB (protein, UniProt P35232 2-272, looked up)
Prohibitin 1: AAKVFESIGKFGLALAVAGGVVNSALYNVDAGHRAVIFDRFRGVQDIVVGEGTHFLIPWVQKPIIFDCRSRPRNVPVITGSKDLQNVNITLRILFRPVASQLPRIFTSIGEDYDERVLPSITTEILKSVVARFDAGELITQRELVSRQVSDDLTERAATFGLILDDVSLTHLTFGKEFTEAVEAKQVAQQEAERARFVVEKAEQQKKAAIISAEGDSKAAELIANSLATAGDGLIELRKLEAAEDIAYQLSRSRNITYLPAGQSVLLQLPQ
Take B2: under setting [1], the “Avg. fold change (CLPP KO/WT)” value amounted to 1.54.

B3: NT5DC2 (protein, UniProt Q9H857 1-520, looked up)
5'-nucleotidase …: MRVESGSAQERGILLESLSTLLEKTTASHEGRAPGNRELTDLLPPEVCSLLNPAAIYANNEISLRDVEVYGFDYDYTLAQYADALHPEIFSTARDILIEHYKYPEGIRKYDYNPSFAIRGLHYDIQKSLLMKIDAFHYVQLGTAYRGLQPVPDEEVIELYGGTQHIPLYQMSGFYGKGPSIKQFMDIFSLPEMALLSCVVDYFLGHSLEFDQAHLYKDVTDAIRDVHVKGLMYQWIEQDMEKYILRGDETFAVLSRLVAHGKQLFLITNSPFSFVDKGMRHMVGPDWRQLFDVVIVQADKPSFFTDRRKPFRKLDEKGSLQWDRITRLEKGKIYRQGNLFDFLRLTEWRGPRVLYFGDHLYSDLADLMLRHGWRTGAIIPELEREIRIINTEQYMHSLTWQQALTGLLERMQTYQDAESRQVLAAWMKERQELRCITKALFNAQFGSIFRTFHNPTYFSRRLVRFSDLYMASLSCLLNYRVDFTFYPRRTPLQHEAPLWMDQLCTGCMKTPFLGDMAHIR
As to B3, the “Avg. fold change (CLPP KO/WT)” value under setting [1] is listed as 2.48.

B4: PDE12 (protein, UniProt Q6L8Q7 43-609, looked up)
2',5'-phosphodiesterase 12: VPSEPKLSLSFALADGSHKNMQRDQSEPLGRVLSRIATNALKGHAKAAAAKKSRKSRPNASGGAACSGPGPEPAVFCEPVVKLYYREEAVAEDVLNVDAWQDGAVLQIGDVKYKVERNPPAFTELQLPRYIMAGFPVCPKLSLEFGDPASSLFRWYKEAKPGAAEPEVGVPSSLSPSSPSSSWTETDVEERVYTPSNADIGLRLKLHCTPGDGQRFGHSRELESVCVVEAGPGTCTFDHRHLYTKKVTEDALIRTVSYNILADTYAQTEFSRTVLYPYCAPYALELDYRQNLIQKELTGYNADVICLQEVDRAVFSDSLVPALEAFGLEGVFRIKQHEGLATFYRKSKFSLLSQHDISFYEALESDPLHKELLEKLVLYPSAQEKVLQRSSVLQVSVLQSTKDSSKRICVANTHLYWHPKGGYIRLIQMAVALAHIRHVSCDLYPGIPVIFCGDFNSTPSTGMYHFVINGSIPEDHEDWASNGEEERCNMSLTHFFKLKSACGEPAYTNYVGGFHGCLDYIFIDLNALEVEQVIPLPSHEEVTTHQALPSVSHPSDHIALVCDLKWK
Turning to B4, the “Avg. fold change (CLPP KO/WT)” value under setting [1] is recorded as −3.68.

B5: PCK2 (protein, UniProt Q16822 33-640, looked up)
Phosphoenolpyruvate …: LSGDLGQLPTGIRDFVEHSARLCQPEGIHICDGTEAENTATLTLLEQQGLIRKLPKYNNCWLARTDPKDVARVESKTVIVTPSQRDTVPLPPGGARGQLGNWMSPADFQRAVDERFPGCMQGRTMYVLPFSMGPVGSPLSRIGVQLTDSAYVVASMRIMTRLGTPVLQALGDGDFVKCLHSVGQPLTGQGEPVSQWPCNPEKTLIGHVPDQREIISFGSGYGGNSLLGKKCFALRIASRLARDEGWLAEHMLILGITSPAGKKRYVAAAFPSACGKTNLAMMRPALPGWKVECVGDDIAWMRFDSEGRLRAINPENGFFGVAPGTSATTNPNAMATIQSNTIFTNVAETSDGGVYWEGIDQPLPPGVTVTSWLGKPWKPGDKEPCAHPNSRFCAPARQCPIMDPAWEAPEGVPIDAIIFGGRRPKGVPLVYEAFNWRHGVFVGSAMRSESTAAAEHKGKIIMHDPFAMRPFFGYNFGHYLEHWLSMEGRKGAQLPRIFHVNWFRRDEAGHFLWPGFGENARVLDWICRRLEGEDSARETPIGLVPKEGALDLSGLRAIDTTQLFSLPKDFWEQEVRDIRSYLTEQVNQDLPKEVLAELEALERRVHKM
On to B5, for which the “Avg. fold change (CLPP KO/WT)” value under setting [1] was −5.13.

B6: PGAM5 (protein, UniProt Q96HS1 1-289, looked up)
Serine/threonine-protein …: MAFRQALQLAACGLAGGSAAVLFSAVAVGKPRAGGDAEPRPAEPPAWAGGARPGPGVWDPNWDRREPLSLINVRKRNVESGEEELASKLDHYKAKATRHIFLIRHSQYHVDGSLEKDRTLTPLGREQAELTGLRLASLGLKFNKIVHSSMTRAIETTDIISRHLPGVCKVSTDLLREGAPIEPDPPVSHWKPEAVQYYEDGARIEAAFRNYIHRADARQEEDSYEIFICHANVIRYIVCRALQFPPEGWLRLSLNNGSITHLVIRPNGRVALRTLGDTGFMPPDKITRS
Take B6: the “Avg. fold change (CLPP KO/WT)” value under setting [1] is reported as −1.97.

B7: PAM16 (protein, UniProt Q9Y3D7 1-125, looked up)
Mitochondrial import inner …: MAKYLAQIIVMGVQVVGRAFARALRQEFAASRAAADARGRAGHRSAAASNLSGLSLQEAQQILNVSKLSPEEVQKNYEHLFKVNDKSVGGSFYLQSKVVRAKERLDEELKIQAQEDREKGQMPHT
For the molecule B7, the “Avg. fold change (CLPP KO/WT)” value under setting [1] is −1.57.

B8: NIPSNAP1 (protein, UniProt Q9BPW8 36-284, looked up)
Protein NipSnap homolog 1: SKDNEGSWFRSLFVHKVDPRKDAHSTLLSKKETSNLYKIQFHNVKPEYLDAYNSLTEAVLPKLHLDEDYPCSLVGNWNTWYGEQDQAVHLWRFSGGYPALMDCMNKLKNNKEYLEFRRERSQMLLSRRNQLLLEFSFWNEPQPRMGPNIYELRTYKLKPGTMIEWGNNWARAIKYRQENQEAVGGFFSQIGELYVVHHLWAYKDLQSREETRNAAWRKRGWDENVYYTVPLVRHMESRIMIPLKISPLQ
B8: the “Avg. fold change (CLPP KO/WT)” value under setting [1] is on record as −3.19.

B9: OGDH (protein, UniProt Q02218 41-1023, looked up)
2-oxoglutarate dehydrogenase …: SAPVAAEPFLSGTSSNYVEEMYCAWLENPKSVHKSWDIFFRNTNAGAPPGTAYQSPLPLSRGSLAAVAHAQSLVEAQPNVDKLVEDHLAVQSLIRAYQIRGHHVAQLDPLGILDADLDSSVPADIISSTDKLGFYGLDESDLDKVFHLPTTTFIGGQESALPLREIIRRLEMAYCQHIGVEFMFINDLEQCQWIRQKFETPGIMQFTNEEKRTLLARLVRSTRFEEFLQRKWSSEKRFGLEGCEVLIPALKTIIDKSSENGVDYVIMGMPHRGRLNVLANVIRKELEQIFCQFDSKLEAADEGSGDVKYHLGMYHRRINRVTDRNITLSLVANPSHLEAADPVVMGKTKAEQFYCGDTEGKKVMSILLHGDAAFAGQGIVYETFHLSDLPSYTTHGTVHVVVNNQIGFTTDPRMARSSPYPTDVARVVNAPIFHVNSDDPEAVMYVCKVAAEWRSTFHKDVVVDLVCYRRNGHNEMDEPMFTQPLMYKQIRKQKPVLQKYAELLVSQGVVNQPEYEEEISKYDKICEEAFARSKDEKILHIKHWLDSPWPGFFTLDGQPRSMSCPSTGLTEDILTHIGNVASSVPVENFTIHGGLSRILKTRGEMVKNRTVDWALAEYMAFGSLLKEGIHIRLSGQDVERGTFSHRHHVLHDQNVDKRTCIPMNHLWPNQAPYTVCNSSLSEYGVLGFELGFAMASPNALVLWEAQFGDFHNTAQCIIDQFICPGQAKWVRQNGIVLLLPHGMEGMGPEHSSARPERFLQMCNDDPDVLPDLKEANFDINQLYDCNWVVVNCSTPGNFFHVLRRQILLPFRKPLIIFTPKSLLRHPEARSSFDEMLPGTHFQRVIPEDGPAAQNPENVKRLLFCTGKVYYDLTRERKARDMVGQVAITRIEQLSPFPFDLLLKEVQKYPNAELAWCQEEHKNQGYYDYVKPRLRTTISRAKPVWYAGRDPAAAPATGNKKTHLTELQRLLDTAFDLDVFKNFS
As to B9, the “Avg. fold change (CLPP KO/WT)” value under setting [1] is −1.85.

B10: MTX2 (protein, UniProt O75431 2-263, looked up)
Metaxin-2: SLVAEAFVSQIAAAEPWPENATLYQQLKGEQILLSDNAASLAVQAFLQMCNLPIKVVCRANAEYMSPSGKVPFIHVGNQVVSELGPIVQFVKAKGHSLSDGLEEVQKAEMKAYMELVNNMLLTAELYLQWCDEATVGEITHARYGSPYPWPLNHILAYQKQWEVKRKMKAIGWGKKTLDQVLEDVDQCCQALSQRLGTQPYFFNKQPTELDALVFGHLYTILTTQLTNDELSEKVKNYSNLLAFCRRIEQHYFEDRGKGRLS
For the molecule B10, the “Avg. fold change (CLPP KO/WT)” value ([…]) stood at 3.29.

B11: PCCB (protein, UniProt P05166 29-539, looked up)
Propionyl-CoA carboxylase …: CSQATSVNERIENKRRTALLGGGQRRIDAQHKRGKLTARERISLLLDPGSFVESDMFVEHRCADFGMAADKNKFPGDSVVTGRGRINGRLVYVFSQDFTVFGGSLSGAHAQKICKIMDQAITVGAPVIGLNDSGGARIQEGVESLAGYADIFLRNVTASGVIPQISLIMGPCAGGAVYSPALTDFTFMVKDTSYLFITGPDVVKSVTNEDVTQEELGGAKTHTTMSGVAHRAFENDVDALCNLRDFFNYLPLSSQDPAPVRECHDPSDRLVPELDTIVPLESTKAYNMVDIIHSVVDEREFFEIMPNYAKNIIVGFARMNGRTVGIVGNQPKVASGCLDINSSVKGARFVRFCDAFNIPLITFVDVPGFLPGTAQEYGGIIRHGAKLLYAFAEATVPKVTVITRKAYGGAYDVMSSKHLCGDTNYAWPTAEIAVMGAKGAVEIIFKGHENVEAAQAEYIEKFANPFPAAVRGFVDDIIQPSSTRARICCDLDVLASKKVQRPWRKHANIPL
In the case of B11, under setting [1], the “Avg. fold change (CLPP KO/WT)” value is given as −26.16.
